# Data: PubChem BioAssay AID2216 (Broad Institute, 2009)
# The whole screen tested about 300,000 compounds, of which about 3,300 (1.1%) were called active. All entries are inconclusive by the source's own rule. Clear calls are listed elsewhere.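 The calls were made as follows: active = more than half of the replicate wells show a fall in the fluorescence ratio signal beyond about 16% (limit read from the data, passing the limit was not always enough); inconclusive = exactly half of the replicate wells pass the set limit; inactive = fewer than half of replicates pass the limit.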 Some of these compounds have results that are not shown, active ones among them.
# Tested on: Ran GTPase (GTP-bound) - importin-beta complex
# Experiment: disruptors of Ran-importin-beta complex formation – biochemical, FRET, CFP-Ran, YFP-importin-beta, homogeneous, primary screen (AID 2216);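 also: 0% = DMSO wells and 100% = Ran loaded with GDP instead of GTP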
# Settings: cell-free CFP-Ran/YFP-importin-beta FRET ratio; hits give high values; concentration not given here
row,Structure (SMILES),inhibition
1,C=CCN1CCN(CCOC(=O)C(O)(c2ccccc2)c2ccccc2)CC1,inconclusive: 8.09%
2,COc1ccc(C(=O)NCC2(N(C)C)CCCCC2)cc1,inconclusive: 9.05%
